These are yes or no findings as the source states them, for the method shown. Binding seen in cells or lysates may run through a third protein. Some results given as binding are weak or reduced against the parent protein; the word gives no strength.
biological target: eukaryotic translation initiation factor 3 subunit b (human (endogenous in HEK293FT)) (UniProt P55884); assay: co-IP; endogenous eIF3 complex precipitated from extracts of formaldehyde cross-linked (0.2%) HEK293FT cells with an antibody against eIF3b (Bethyl A301-761A) and protein A uMACS magnetic beads; Lysis Buffer 50 mM Tris-HCl pH 8, 150 mM NaCl, 1% Triton X-100; four washes; western blot with antibodies against the subunits; also repeated after siRNA depletion of eIF3c, d, e, g (Table S1)

Amino acid sequences for entries named in this document (tags omitted).
UniProt P55884: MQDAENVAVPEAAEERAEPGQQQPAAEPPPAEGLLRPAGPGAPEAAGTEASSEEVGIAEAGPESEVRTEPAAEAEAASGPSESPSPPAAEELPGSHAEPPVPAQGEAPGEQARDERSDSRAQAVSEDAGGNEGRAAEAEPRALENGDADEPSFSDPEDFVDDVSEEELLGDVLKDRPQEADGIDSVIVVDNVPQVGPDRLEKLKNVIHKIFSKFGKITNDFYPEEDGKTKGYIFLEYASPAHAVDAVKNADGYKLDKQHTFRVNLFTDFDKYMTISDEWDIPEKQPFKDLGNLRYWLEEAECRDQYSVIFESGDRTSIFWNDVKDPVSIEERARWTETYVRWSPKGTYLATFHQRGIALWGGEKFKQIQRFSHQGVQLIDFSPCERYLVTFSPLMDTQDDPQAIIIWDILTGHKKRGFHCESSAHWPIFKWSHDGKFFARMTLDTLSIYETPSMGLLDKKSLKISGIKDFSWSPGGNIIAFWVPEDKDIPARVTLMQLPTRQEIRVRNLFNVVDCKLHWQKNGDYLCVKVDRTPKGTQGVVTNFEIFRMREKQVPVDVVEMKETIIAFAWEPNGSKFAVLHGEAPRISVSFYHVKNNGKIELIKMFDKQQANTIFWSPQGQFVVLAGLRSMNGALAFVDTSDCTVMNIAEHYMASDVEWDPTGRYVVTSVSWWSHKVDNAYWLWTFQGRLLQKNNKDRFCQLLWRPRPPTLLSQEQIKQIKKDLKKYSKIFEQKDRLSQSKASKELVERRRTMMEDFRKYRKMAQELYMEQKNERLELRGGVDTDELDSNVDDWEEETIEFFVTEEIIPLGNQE
UniProt O15371: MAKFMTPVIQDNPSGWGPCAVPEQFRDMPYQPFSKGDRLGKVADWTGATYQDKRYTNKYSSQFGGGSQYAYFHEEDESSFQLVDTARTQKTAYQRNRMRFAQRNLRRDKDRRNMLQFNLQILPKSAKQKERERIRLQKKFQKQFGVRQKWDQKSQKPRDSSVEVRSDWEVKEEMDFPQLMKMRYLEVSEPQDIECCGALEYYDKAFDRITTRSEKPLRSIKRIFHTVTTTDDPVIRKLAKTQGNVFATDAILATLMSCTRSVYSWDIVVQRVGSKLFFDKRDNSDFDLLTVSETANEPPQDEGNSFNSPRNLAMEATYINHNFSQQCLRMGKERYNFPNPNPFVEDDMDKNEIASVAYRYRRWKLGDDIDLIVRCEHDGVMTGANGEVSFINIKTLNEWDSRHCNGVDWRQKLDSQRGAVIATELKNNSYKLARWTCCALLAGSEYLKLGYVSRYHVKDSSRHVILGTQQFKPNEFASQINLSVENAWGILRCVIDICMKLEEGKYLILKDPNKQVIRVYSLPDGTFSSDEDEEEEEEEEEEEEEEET
UniProt Q9UBQ5: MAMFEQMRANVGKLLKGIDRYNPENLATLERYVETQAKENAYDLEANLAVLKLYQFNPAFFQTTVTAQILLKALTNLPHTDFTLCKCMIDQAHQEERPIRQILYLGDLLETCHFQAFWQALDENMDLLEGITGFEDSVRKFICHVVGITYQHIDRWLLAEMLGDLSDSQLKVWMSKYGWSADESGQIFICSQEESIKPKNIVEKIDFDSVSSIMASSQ
UniProt O00303: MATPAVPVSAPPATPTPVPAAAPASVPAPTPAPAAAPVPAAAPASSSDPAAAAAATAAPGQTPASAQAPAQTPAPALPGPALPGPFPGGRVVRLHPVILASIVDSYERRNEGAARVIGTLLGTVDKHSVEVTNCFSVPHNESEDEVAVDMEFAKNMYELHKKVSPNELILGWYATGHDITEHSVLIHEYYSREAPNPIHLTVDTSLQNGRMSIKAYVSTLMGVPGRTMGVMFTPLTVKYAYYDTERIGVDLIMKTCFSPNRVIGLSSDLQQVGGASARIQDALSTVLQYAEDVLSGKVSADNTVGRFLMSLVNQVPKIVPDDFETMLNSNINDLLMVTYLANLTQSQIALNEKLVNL

binding, binds:
eukaryotic translation initiation factor 3 subunit d (from UniProt O15371 1-548)
eukaryotic translation initiation factor 3 subunit k (from UniProt Q9UBQ5 1-218)
eukaryotic translation initiation factor 3 subunit f (from UniProt O00303 1-357)
